Reference: PubChem BioAssay AID2061318 (National Center for Advancing Translational Sciences (NCATS), 2025)
This list was built around the results that the source calls inconclusive (neither active nor inactive); the mix of calls is not that of the screen. Where the call is inconclusive, the potency comes from a doubtful curve fit. Active and inactive are the calls of the source. Calls come from the whole dose curve; as a rule, active = well fitted inhibition curve with a large enough effect; inconclusive = small, poorly fitted or top-dose-only effect; inactive = flat fitted curve, though single readings scatter. Non-standard residues stand in square brackets, D forms with d. Residues, ends and D or L forms follow the SMILES beside them. *: point of attachment. Dolaproine = CO[C@@H]([C@@H]1CCCN1)[C@@H](C)C(=O)O; Dil = CC[C@H](C)[C@H](NC)[C@@H](CC(=O)O)OC; NMe2Val = CC(C)[C@@H](C(=O)*)N(C)C; X1 = C[C@@H](N*)[C@@H](O)c1ccccc1; NMeV = CN[C@H](C(=O)O)C(C)C

Test: Identification of antibody-drug conjugate (ADC) payloads which are substrates of ATP-binding cassette drug efflux transporters: ABCB1-HEK293-MDR-19 cell line
Conditions: HEK293 ABCB1 (MDR-19) viability, CellTiter-Glo, 48 h
Text: Antibody-drug conjugates (ADCs) feature an antibody recognizing a specific protein joined to a potent toxic payload. Numerous antibody-drug conjugates have received FDA approval; however, clinical resistance arises. Resistance mechanisms include decreased expression or mutation of the antibody target, impaired payload release, or increased expression of ATP-binding cassette (ABC) efflux transporters associated with multidrug resistance. We therefore sought to characterize the interaction of ABC multidrug transporters with ADC payloads. We performed a high-throughput screen with 27 common ADC payloads using cells lines expressing ABC transporters P-glycoprotein (P-gp, encoded by ABCB1) or ABCG2 (encoded by ABCG2). Confirmatory assays were also performed using cells transfected to express P-gp, ABCG2, or MRP1 (encoded by ABCC1). Several commonly used ADC payloads were substrates of P-gp, including calicheamicin gamma1, monomethyl auristatin E, DM1, and DM4. All the pyrrolobenzodiazepines tested - SJG136, SGD-1882, SG2057, and SG3199 - were substrates of P-gp, ABCG2, and MRP1. […] These findings highlight the risk of transporter-mediated resistance with certain ADC payloads and underscore the importance of selecting payloads that evade ABC transporter recognition in future ADC development.
HEK-293 cells were transfected with empty vector (pcDNA) or vector containing the human ABCB1 (MDR-19), ABCG2 (R-5), or ABCC1 gene (MRP1) and were maintained in EMEM with 2 mg/mL G418 added to maintain transporter expression. The HeLa derivative KB-3-1 and the P-gp overexpressing KB-8-5-11 subline were maintained in DMEM; KB-8-5-11 additionally received 100 ng/mL colchicine. H460 parental cells were obtained from the Division of Cancer Treatment and Diagnosis Tumor Repository, National Cancer Institute at Frederick, MD and were cultured in RPMI. The ABCG2 expressing subline H460 MX20 was generated by selecting H460 cells in 20 nM mitoxantrone. Media in all cases was supplemented with 10% FBS and 1% penicillin-streptomycin. We explored 27 common ADC payloads, in two orthogonal, paired cell line sets-a drug selected and transfected set for each transporter--to identify substrates of the ABC transporters P-gp and ABCG2. Compounds were sourced from Levena Biopharma (San Diego, CA), Selleck Chem (Houston, TX), ChemieTek (Indianapolis, IN), or Microsource Discovery Systems (Gaylordsville, CT). Screening was performed as previously described. Briefly, cells were plated at a density of 500 cells/well in 1536 well plates with compounds added using a 1536-head pin tool (Kalypsys, San Diego CA). Cells were incubated with cytotoxic drugs and processed with CellTiter Glo reagent (Promega, Madison, WI) to determine viability after 48 hours. P-gp substrates were identified by comparing compound activity between paired sets of low-expressing (sensitive) and over-expressing (resistant) cell lines.

Row | Compound | Potency
1 | CC[C@H](C)[C@H](NC(=O)[C@H]1CCCCN1C)C(=O)N(C)[C@H](C[C@@H](OC(C)=O)c1nc(C(=O)N[C@@H](Cc2ccccc2)C[C@H](C)C(=O)O)cs1)C(C)C | inconclusive: 13.3 nM [falling, full curve]
2 | CC[C@H](C)[C@@H]1NC(=O)CNC(=O)[C@H]2Cc3c([nH]c4cc(O)ccc34)S(=O)C[C@H](NC(=O)CNC1=O)C(=O)N[C@@H](CC(N)=O)C(=O)N1C[C@H](O)C[C@H]1C(=O)N[C@@H]([C@@H](C)[C@@H](O)CO)C(=O)N2 (stereo not given in full) | inconclusive: 1330 nM [falling, full curve]
3 | CC[C@H](C)[C@@H]([C@@H](CC(=O)N1CCC[C@H]1[C@H](OC)[C@@H](C)C(=O)N[C@@H](Cc1ccccc1)C(=O)O)OC)N(C)C(=O)[C@@H](NC(=O)[C@H](C(C)C)N(C)C)C(C)C (NMe2Val-V[Dil][Dolaproine]F-OH) | inconclusive: 839 nM [falling, full curve]
4 | CC[C@H](C)[C@H](NC(=O)[C@H]1CCCCN1C)C(=O)N(C)[C@H](C[C@@H](OC(C)=O)c1nc(C(=O)O)cs1)C(C)C | inconclusive: 4720 nM [falling, full curve]
5 | CC[C@H](C)[C@@H]([C@@H](CC(=O)N1CCC[C@H]1[C@H](OC)[C@@H](C)C(=O)N[C@H](C)[C@@H](O)c1ccccc1)OC)N(C)C(=O)[C@@H](NC(=O)[C@H](C(C)C)N(C)C)C(C)C | active: 66.6 nM
6 | COc1cc2cc(C(=O)N3C[C@@H](CCl)c4c3cc(O)c3ccccc43)[nH]c2c(OC)c1OC | active: 1.2 nM
7 | COc1cc2cc(c1Cl)N(C)C(=O)C[C@H](OC(=O)C(C)C)[C@]1(C)O[C@H]1[C@H](C)[C@@H]1C[C@@](O)(NC(=O)O1)[C@H](OC)C=CC=C(C)C2 | active: 14.9 nM
8 | CC[C@H](C)[C@@H]([C@@H](CC(=O)N1CCC[C@H]1[C@H](OC)[C@@H](C)C(=O)N[C@H](C)[C@@H](O)c1ccccc1)OC)N(C)C(=O)[C@@H](NC(=O)[C@@H](NC)C(C)C)C(C)C (H-[NMeV]V[Dil][Dolaproine]-X1) | inconclusive: 334 nM [falling, full curve]
9 | COc1cccc2c1C(=O)c1c(O)c3c(c(O)c1C2=O)C[C@@](O)(C(=O)CO)CC3OC1CC(N2CCOC(OC)C2)C(O)C(C)O1 (stereo not given in full) | active: 1.7 nM
10 | COc1cc2cc(c1Cl)N(C)C(=O)C[C@H](OC(=O)[C@H](C)N(C)C(=O)CCC(C)(C)S)[C@]1(C)OC1[C@H](C)C1C[C@@](O)(NC(=O)O1)[C@H](OC)/C=C/C=C(\C)C2 (stereo not given in full) | inconclusive: 47.2 nM [falling, full curve]
